The whole screen tested about 31,000 sequences, of which about 1,400 (4.5%) were called active.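 How the source made its calls: active means median seed-adjusted z-score above 1 or below -1; inactive means the rest.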 The list shows a part of the results.

This experiment can be described thus: Novel Modifiers of Survival Motor Neuron (SMN) Protein: Gene Identification via Genome-wide siRNA Screen.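 Further: luminescence tracks full-length SMN protein made from the SMN2 reporter.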 The settings on record: HEK293T SMN2-luciferase reporter, siRNA knockdown, 72 h; actives lie on both sides. The procedure, abridged:
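siRNA screen, 10418 genes ×3 siRNAs; 1 pmol/well, lipid reverse transfection into HEK293T SMN2-luc reporter line. 72 h, 37 °C, 5% CO2; ONE-Glo readout. Data: neg-ctrl normalized, log10, MAD; hit = MAD >1.0 or < -1.0.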
For orientation: A reporter such as luciferase makes a cellular process visible.
As to CCCGGAAGUUUGUAGCUGATT against SLC25A44, the median seed-adjusted z-score is inactive: -0.0685.

Regarding GCUCUGCUAUAUCCUGGAUTT against FCER1G, the median seed-adjusted z-score was inactive: 0.136.

Turning to CCAGUACAUUUACCGAGUATT against ADH7, the median seed-adjusted z-score was inactive: -0.388.

As for GCUACGUCCUGCACCGUAATT against MASP2, the median seed-adjusted z-score is inactive: -0.137.

On to CCCUGCCUUUUUCAACUUUTT against CYP2F1, for which the median seed-adjusted z-score was inactive: 0.

Consider GAGAGUUCACUAAAGGAAATT against ITPKB, for which the median seed-adjusted z-score is inactive: -0.142.

For the sequence UACACAACCUUGGAAGAUUTT against DDX19B, the median seed-adjusted z-score was inactive: -0.298.

Regarding GCACAGGCAAUGUUCGCAATT against MEP1A, the median seed-adjusted z-score is inactive: 0.209.

AAGACGAACUUGAGCUGGATT against MAPK8IP1: the median seed-adjusted z-score was inactive: 0.576.

Consider CCAUAAUAAUGAAUGACUATT against SEC11C, for which the median seed-adjusted z-score is inactive: 0.508.

Turning to GGAAAUCAUCUUUACGGAATT against DONSON, the median seed-adjusted z-score was inactive: -0.882.

For CUACCUCUAUAUCACCAAATT against KDELR1, the median seed-adjusted z-score is inactive: -0.0168.

Regarding GCUAAUCCUUAACUAUCCATT against NF1, the median seed-adjusted z-score was inactive: -0.36.

For GAAGUCAGAGCGUAAGAAATT against GNA15, the median seed-adjusted z-score is inactive: 0.582.

Consider GUCACAUCUUUUUCAUACATT against CHST9, for which the median seed-adjusted z-score was inactive: 0.252.

As to UGACCACACUUCUCAGCUATT against IL9R, the median seed-adjusted z-score was active: -1.33.

For the sequence GCAUCUACUUCAACCGUUUTT against GRK6, the median seed-adjusted z-score was inactive: -0.862.

Take GAGUGUACAAAGGAAGUUATT against SLCO1A2: the median seed-adjusted z-score is inactive: -0.2.

GGACUACCACCAAUUCUAATT against ATP5B: the median seed-adjusted z-score is inactive: 0.393.

As for GGCGAGAUGUUGACAUACUTT against ADCY1, the median seed-adjusted z-score is inactive: 0.154.

On to CGGUAGGUCAUGUCUGUAATT against SULT1A1, for which the median seed-adjusted z-score is inactive: -0.26.

In the case of GCAACGACCUGAAGAUCGATT against ATXN1, the median seed-adjusted z-score was inactive: -0.024.

With GAUUGAGUUUAUUUCAACATT against GGH, the median seed-adjusted z-score was inactive: -0.105.

On to GCUACUUGAUUGCGACCAATT against ADRBK2, for which the median seed-adjusted z-score is inactive: 0.148.

As for CCCAUAAUAUCAUUGAGAATT against SREBF2, the median seed-adjusted z-score is inactive: -0.606.

For the sequence GGUGAAUGCUGAUGACUCUTT against CLDN16, the median seed-adjusted z-score is inactive: -0.868.

Regarding GAACAUCGAGAUGCACAAATT against AES, the median seed-adjusted z-score is inactive: -0.478.

Regarding CGUGAUUGACUAUGAGGAATT against GRM6, the median seed-adjusted z-score was inactive: -0.0544.

Take GAAGGACUCUCUACAGAAATT against LPO: the median seed-adjusted z-score was inactive: 0.201.

For the sequence UGAGCACAAUCAAGUCUAATT against BRD4, the median seed-adjusted z-score was active: 1.13.

As to ACACCAAUGUGCUCCGCUATT against TTC9B, the median seed-adjusted z-score is inactive: -0.272.

For GCAUUGUCACAUAAUUGAATT against NOTCH2NL, the median seed-adjusted z-score was inactive: 0.586.

On to CAACAGUGAUGUAACUAUUTT against PARD6G, for which the median seed-adjusted z-score was inactive: 0.

For the sequence CCAAGAGAAUACAAGUUCUTT against RNF138, the median seed-adjusted z-score is inactive: 0.265.

On to GGAGAGCAAUACAUCAUCATT against GLRX2, for which the median seed-adjusted z-score was inactive: -0.244.

As to CCAGUGUCAUAAACCUGUATT against NUDT4, the median seed-adjusted z-score was inactive: -0.0306.

Turning to GGCAUAUGGUUAUCGAGGATT against EML4, the median seed-adjusted z-score was inactive: 0.958.

For GCAUCGUUCUGCAGAUUGATT against KRT18, the median seed-adjusted z-score was inactive: 0.558.

On to GGUUUUCAGUCGUAAAUCATT against ZNF611, for which the median seed-adjusted z-score is inactive: -0.0392.

As to GGGAGGUAGUAAUCCUACATT against PPP1R12B, the median seed-adjusted z-score is inactive: 0.416.

As for GCAUCGACAUAAAGCUGGATT against KIF1C, the median seed-adjusted z-score was inactive: 0.749.

Consider GAUUGAUACAGGCACUAUATT against GMEB1, for which the median seed-adjusted z-score is inactive: 0.198.

As to CAUUUUACCUGGGUACCAATT against PARS2, the median seed-adjusted z-score was inactive: -0.433.

In the case of GCUUUAACCCGGUGCUCUATT against XCR1, the median seed-adjusted z-score is inactive: -0.292.

As for GGAUCAGCGUAGUAUAAUUTT against OSBPL10, the median seed-adjusted z-score is inactive: 0.247.

Consider CAUCCAGCCCUUUUCCUUUTT against LRFN2, for which the median seed-adjusted z-score was inactive: 0.

As for CGACAUGAUUAAUGGUACATT against CD36, the median seed-adjusted z-score is inactive: -0.000845.

On to CGAUGGAGCUCUAUCAAAUTT against ISG20, for which the median seed-adjusted z-score was inactive: 0.0209.

Turning to UGAGAUUUCGGAAUCAGAATT against TSPAN31, the median seed-adjusted z-score was active: -1.13.

For CGUUGAUUCUGAUGGAUCATT against ACAD9, the median seed-adjusted z-score is inactive: -0.384.

For AAACCGCCCUACUCUUACATT against FOXB2, the median seed-adjusted z-score was inactive: -0.0149.

For CGAGUUCGGUGGGUCAAUATT against SLC12A1, the median seed-adjusted z-score is inactive: -0.406.

On to GCAUAAUUGCCUUUUCCUATT against ADRA2A, for which the median seed-adjusted z-score was inactive: -0.65.

Turning to GGAGCUCCAGGGUUCAUAATT against ADRB3, the median seed-adjusted z-score was inactive: 0.17.

For the sequence CACCACAAAUAAUAGCGAATT against TRPA1, the median seed-adjusted z-score was inactive: 0.341.

Turning to GAGACUUCCUAAACAGGUATT against TRIM26, the median seed-adjusted z-score was inactive: 0.

For the sequence GCGACCCUGUUAUUCUGUATT against TM9SF1, the median seed-adjusted z-score was inactive: 0.14.

CAAGAUCCAGGACACCAAATT against MAP4K1: the median seed-adjusted z-score is inactive: 0.

Take CCGUCUACACGGACUUCGATT against PIM1: the median seed-adjusted z-score is inactive: -0.409.

Turning to CAGUGCUACUUGGAAUGUUTT against RHOJ, the median seed-adjusted z-score was inactive: -0.304.

Take GGAGGCCUACUGUCCAUUATT against PIGC: the median seed-adjusted z-score is inactive: -0.3.

For the sequence GGUAGAGACCUAUCUAAAATT against GTPBP8, the median seed-adjusted z-score is inactive: 0.834.

With GAUCCUAUGAAAACCUAUATT against PRKG1, the median seed-adjusted z-score was inactive: 0.

For the sequence CAACCCAACCAACACCAUUTT against OSBPL10, the median seed-adjusted z-score was inactive: 0.247.

AGAGCUGACUUACACGUGUTT against CD84: the median seed-adjusted z-score is inactive: 0.629.

As to CCUUUAGCUUUAUACACGATT against TDRD5, the median seed-adjusted z-score is inactive: -0.0961.

As for AGGACAUGUUUGCACUACUTT against MGC29506, the median seed-adjusted z-score is inactive: 0.

With CAGGCUUACUUCUAGCUUUTT against CRB1, the median seed-adjusted z-score was inactive: 0.

With CAUCAAACCUGGGAACAAATT against ZNF225, the median seed-adjusted z-score was inactive: 0.0761.

The values are drawn from PubChem BioAssay AID1347426 (Functional Genomics Laboratory (NCATS/FGL), 2020).
